Assay [1] deals with SEC61B (human (endogenous in HeLa)) (UniProt P60468). Put plainly: proximity ligation; Duolink PLA on fixed, permeabilised cells with primary antibodies to the two proteins.
The target of the next assay is T1, UPF1 C126S (human) (UniProt Q92900).
T1 sequence: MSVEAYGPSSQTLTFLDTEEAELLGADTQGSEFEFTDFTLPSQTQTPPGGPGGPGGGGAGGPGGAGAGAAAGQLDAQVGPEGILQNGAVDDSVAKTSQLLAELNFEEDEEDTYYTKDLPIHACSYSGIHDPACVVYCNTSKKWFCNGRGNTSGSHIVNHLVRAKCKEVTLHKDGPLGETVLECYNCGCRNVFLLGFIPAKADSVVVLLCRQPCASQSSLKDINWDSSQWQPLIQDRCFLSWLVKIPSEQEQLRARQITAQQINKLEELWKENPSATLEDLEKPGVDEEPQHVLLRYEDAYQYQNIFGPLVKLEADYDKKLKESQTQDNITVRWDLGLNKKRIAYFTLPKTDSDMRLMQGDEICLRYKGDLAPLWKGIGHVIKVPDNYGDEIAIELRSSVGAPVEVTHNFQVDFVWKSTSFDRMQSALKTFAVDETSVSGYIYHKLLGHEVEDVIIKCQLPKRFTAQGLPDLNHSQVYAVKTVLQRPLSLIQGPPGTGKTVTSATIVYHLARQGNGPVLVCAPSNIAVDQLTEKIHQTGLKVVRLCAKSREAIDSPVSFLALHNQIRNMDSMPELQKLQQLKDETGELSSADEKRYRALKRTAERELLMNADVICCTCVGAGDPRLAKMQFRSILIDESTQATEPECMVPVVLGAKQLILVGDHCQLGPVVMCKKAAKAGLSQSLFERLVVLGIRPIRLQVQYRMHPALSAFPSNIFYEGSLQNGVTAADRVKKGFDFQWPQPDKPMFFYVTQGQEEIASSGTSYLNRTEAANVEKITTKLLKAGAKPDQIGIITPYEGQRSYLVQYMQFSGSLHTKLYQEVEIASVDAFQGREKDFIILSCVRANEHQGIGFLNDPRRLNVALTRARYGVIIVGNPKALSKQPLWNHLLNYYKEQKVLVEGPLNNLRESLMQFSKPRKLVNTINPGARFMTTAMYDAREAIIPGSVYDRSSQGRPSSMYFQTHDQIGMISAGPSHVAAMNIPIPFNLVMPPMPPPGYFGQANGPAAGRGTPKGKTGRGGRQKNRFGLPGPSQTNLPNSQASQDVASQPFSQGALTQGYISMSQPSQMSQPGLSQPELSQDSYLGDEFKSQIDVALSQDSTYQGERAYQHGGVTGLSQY
Description: co-IP; tagged UPF1 (wild type or mutant) cotransfected with T7-NBAS, HeLa cells, in the presence or absence of RNases; source of UPF2 not stated.

Protein sequences, listed by entry. Tags and fused reporters are not part of them.
UniProt P60468: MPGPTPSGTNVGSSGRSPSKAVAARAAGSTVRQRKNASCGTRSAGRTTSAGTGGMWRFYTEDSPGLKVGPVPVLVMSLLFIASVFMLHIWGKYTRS
UniProt Q9HAU5: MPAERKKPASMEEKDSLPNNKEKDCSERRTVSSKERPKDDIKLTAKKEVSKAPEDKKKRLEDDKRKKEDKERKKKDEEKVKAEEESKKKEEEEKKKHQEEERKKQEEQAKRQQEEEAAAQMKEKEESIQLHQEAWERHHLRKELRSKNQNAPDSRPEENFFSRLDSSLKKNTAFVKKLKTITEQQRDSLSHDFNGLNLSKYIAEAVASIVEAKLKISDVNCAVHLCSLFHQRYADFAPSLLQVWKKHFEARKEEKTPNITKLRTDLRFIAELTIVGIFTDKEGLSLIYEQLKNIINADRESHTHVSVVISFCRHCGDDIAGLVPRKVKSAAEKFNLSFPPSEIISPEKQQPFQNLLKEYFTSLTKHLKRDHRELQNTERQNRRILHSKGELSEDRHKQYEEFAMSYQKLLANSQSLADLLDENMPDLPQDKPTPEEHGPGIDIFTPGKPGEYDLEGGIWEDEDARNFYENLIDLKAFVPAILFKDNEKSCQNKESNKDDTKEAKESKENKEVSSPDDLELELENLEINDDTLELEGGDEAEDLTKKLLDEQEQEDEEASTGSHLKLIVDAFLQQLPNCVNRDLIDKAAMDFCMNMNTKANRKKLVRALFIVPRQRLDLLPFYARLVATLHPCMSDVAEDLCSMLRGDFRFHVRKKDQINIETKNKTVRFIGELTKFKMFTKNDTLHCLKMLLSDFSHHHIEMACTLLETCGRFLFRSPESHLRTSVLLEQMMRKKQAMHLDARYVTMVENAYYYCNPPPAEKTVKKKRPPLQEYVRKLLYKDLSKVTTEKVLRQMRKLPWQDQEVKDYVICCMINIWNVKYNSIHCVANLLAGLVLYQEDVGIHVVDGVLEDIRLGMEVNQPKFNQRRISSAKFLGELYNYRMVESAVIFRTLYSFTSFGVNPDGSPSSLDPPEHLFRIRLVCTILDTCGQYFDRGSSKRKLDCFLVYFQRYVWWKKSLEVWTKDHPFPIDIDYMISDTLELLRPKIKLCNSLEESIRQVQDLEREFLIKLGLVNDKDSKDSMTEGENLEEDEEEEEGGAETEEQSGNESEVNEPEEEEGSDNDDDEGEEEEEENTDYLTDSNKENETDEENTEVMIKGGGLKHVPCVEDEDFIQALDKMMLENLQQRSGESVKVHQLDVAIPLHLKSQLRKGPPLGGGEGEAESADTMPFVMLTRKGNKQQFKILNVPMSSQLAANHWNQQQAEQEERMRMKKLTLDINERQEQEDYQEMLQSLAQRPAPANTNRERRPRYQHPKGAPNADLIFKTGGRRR

Assay [2] has as its target NBAS (neuroblastoma amplified sequence), endogenous (human (endogenous in HeLa)), A2RRP1. Put plainly: proximity ligation; Duolink PLA on fixed, permeabilised cells with primary antibodies to the two proteins. The settings on record: remark: other sources report otherwise.
In assay [3] the target is Flag-tagged NBAS (human), A2RRP1. Put plainly: co-IP; Flag-tagged NBAS and endogenous UPF1, HeLa cells, also in the absence of RNA. As to conditions: remark: other sources report otherwise.

Results are given in words; binding and its absence hold for the method and conditions named. In cells and extracts the contact can be indirect. Some entries that bind do so weakly or less than the wild type.

UPF2 (from UniProt Q9HAU5 1-1272): the binding result in assay [1] is listed as “binds weakly”; in the assay with UPF1 C126S (human) it was “no binding”.

B1: UPF1, endogenous, Q92900 1-1129 (protein)
chain: MSVEAYGPSSQTLTFLDTEEAELLGADTQGSEFEFTDFTLPSQTQTPPGGPGGPGGGGAGGPGGAGAGAAAGQLDAQVGPEGILQNGAVDDSVAKTSQLLAELNFEEDEEDTYYTKDLPIHACSYCGIHDPACVVYCNTSKKWFCNGRGNTSGSHIVNHLVRAKCKEVTLHKDGPLGETVLECYNCGCRNVFLLGFIPAKADSVVVLLCRQPCASQSSLKDINWDSSQWQPLIQDRCFLSWLVKIPSEQEQLRARQITAQQINKLEELWKENPSATLEDLEKPGVDEEPQHVLLRYEDAYQYQNIFGPLVKLEADYDKKLKESQTQDNITVRWDLGLNKKRIAYFTLPKTDSGNEDLVIIWLRDMRLMQGDEICLRYKGDLAPLWKGIGHVIKVPDNYGDEIAIELRSSVGAPVEVTHNFQVDFVWKSTSFDRMQSALKTFAVDETSVSGYIYHKLLGHEVEDVIIKCQLPKRFTAQGLPDLNHSQVYAVKTVLQRPLSLIQGPPGTGKTVTSATIVYHLARQGNGPVLVCAPSNIAVDQLTEKIHQTGLKVVRLCAKSREAIDSPVSFLALHNQIRNMDSMPELQKLQQLKDETGELSSADEKRYRALKRTAERELLMNADVICCTCVGAGDPRLAKMQFRSILIDESTQATEPECMVPVVLGAKQLILVGDHCQLGPVVMCKKAAKAGLSQSLFERLVVLGIRPIRLQVQYRMHPALSAFPSNIFYEGSLQNGVTAADRVKKGFDFQWPQPDKPMFFYVTQGQEEIASSGTSYLNRTEAANVEKITTKLLKAGAKPDQIGIITPYEGQRSYLVQYMQFSGSLHTKLYQEVEIASVDAFQGREKDFIILSCVRANEHQGIGFLNDPRRLNVALTRARYGVIIVGNPKALSKQPLWNHLLNYYKEQKVLVEGPLNNLRESLMQFSKPRKLVNTINPGARFMTTAMYDAREAIIPGSVYDRSSQGRPSSMYFQTHDQIGMISAGPSHVAAMNIPIPFNLVMPPMPPPGYFGQANGPAAGRGTPKGKTGRGGRQKNRFGLPGPSQTNLPNSQASQDVASQPFSQGALTQGYISMSQPSQMSQPGLSQPELSQDSYLGDEFKSQIDVALSQDSTYQGERAYQHGGVTGLSQY
In the case of B1, the binding result in assay [2] and in assay [3] was “binds” in each case.

The values are drawn from publication PMC7397857.
